The record followed here is EPA's ToxValDB 9.5.

For this series, the system named is Rattus norvegicus. The conditions noted are these: oral, gavage; for NOAEL: Crj:CD.

The structures appear in SMILES notation. Several values for one entry are separate records, joined by “and”; a condition that tells them apart may be missing. Identical values can stand only once.

Turning to `CC(C)(C)c1ccc(O)cc1` [4-(1,1-Dimethylethyl)phenol], the LD50 (acute, Sprague-Dawley) is > 2000 mg/kg and 5360 mg/kg. Moreover, the NOAEL stood at 200 mg/kg-day (reproduction developmental) and 200 mg/kg-day (subchronic).

The term LD50 denotes the dose at which mortality reaches 50%. High values mean lower toxicity, low ones greater toxicity. For orientation: NOAEL means the highest dose or exposure tested at which no adverse effect was seen.
